Experimental findings from US10548897B2, “KSR antagonists” (Icahn School of Medicine at Mount Sinai, priority 2015, dated 2020) are described below.

The test relates to MAPK pathway readouts (pERK, pMEK, pRSK) in A375 and HCT-116. Description: Western blot of MAPK pathway readouts, treatment with trametinib combinations. Format: cell-based. The note with it: combined with trametinib. For orientation: Immunoblotting shows a protein as a band on a membrane.

Molecules are shown by their SMILES.

As for `CN[C@@H]1C[C@H]2O[C@@](C)([C@@H]1OC)n1c3ccccc3c3c4c(c5c6ccccc6n2c5c31)C(=O)NC4` [staurosporine], the “MAPK pathway inhibition (pERK, pMEK, pRSK) in combination with trametinib” value is given as “not observed”.
